Laboratory results from the supplement of paper PMC6411743.
± gives the standard deviation of the averaged measurements. The list shows a part of the results.

Protein sequences, listed by entry. Tags and fused reporters are not part of them. Lines headed by an entry give the natural chain unless they say otherwise; changes in a name come on top.
UniProt Q9BRG1: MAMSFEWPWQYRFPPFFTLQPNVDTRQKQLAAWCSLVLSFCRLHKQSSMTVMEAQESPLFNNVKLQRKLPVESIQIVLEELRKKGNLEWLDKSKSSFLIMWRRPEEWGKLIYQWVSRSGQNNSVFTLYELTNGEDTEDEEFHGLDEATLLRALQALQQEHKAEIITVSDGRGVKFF
UniProt Q9BW19: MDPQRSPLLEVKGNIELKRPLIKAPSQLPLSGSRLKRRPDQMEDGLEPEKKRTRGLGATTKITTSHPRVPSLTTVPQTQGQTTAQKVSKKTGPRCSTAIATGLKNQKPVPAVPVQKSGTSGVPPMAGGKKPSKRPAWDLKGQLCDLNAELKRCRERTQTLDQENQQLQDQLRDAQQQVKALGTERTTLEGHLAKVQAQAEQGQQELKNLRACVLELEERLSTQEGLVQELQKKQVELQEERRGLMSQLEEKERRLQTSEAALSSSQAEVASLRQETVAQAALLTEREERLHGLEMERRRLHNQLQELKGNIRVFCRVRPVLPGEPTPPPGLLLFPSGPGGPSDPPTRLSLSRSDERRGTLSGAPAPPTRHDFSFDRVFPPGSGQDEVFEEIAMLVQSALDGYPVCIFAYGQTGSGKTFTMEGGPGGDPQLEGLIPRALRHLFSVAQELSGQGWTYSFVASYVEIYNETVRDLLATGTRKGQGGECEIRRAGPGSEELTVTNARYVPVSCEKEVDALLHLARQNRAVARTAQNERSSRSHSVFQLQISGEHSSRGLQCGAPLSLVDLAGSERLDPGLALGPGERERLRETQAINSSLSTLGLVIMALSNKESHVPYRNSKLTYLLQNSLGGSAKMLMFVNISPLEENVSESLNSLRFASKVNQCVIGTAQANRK
UniProt Q9BQ61: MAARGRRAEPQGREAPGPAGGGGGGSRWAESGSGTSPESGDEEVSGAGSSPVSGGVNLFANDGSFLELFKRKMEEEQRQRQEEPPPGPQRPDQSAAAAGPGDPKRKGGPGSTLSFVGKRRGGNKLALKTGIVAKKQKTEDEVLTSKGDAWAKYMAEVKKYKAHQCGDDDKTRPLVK
UniProt Q9BXL7: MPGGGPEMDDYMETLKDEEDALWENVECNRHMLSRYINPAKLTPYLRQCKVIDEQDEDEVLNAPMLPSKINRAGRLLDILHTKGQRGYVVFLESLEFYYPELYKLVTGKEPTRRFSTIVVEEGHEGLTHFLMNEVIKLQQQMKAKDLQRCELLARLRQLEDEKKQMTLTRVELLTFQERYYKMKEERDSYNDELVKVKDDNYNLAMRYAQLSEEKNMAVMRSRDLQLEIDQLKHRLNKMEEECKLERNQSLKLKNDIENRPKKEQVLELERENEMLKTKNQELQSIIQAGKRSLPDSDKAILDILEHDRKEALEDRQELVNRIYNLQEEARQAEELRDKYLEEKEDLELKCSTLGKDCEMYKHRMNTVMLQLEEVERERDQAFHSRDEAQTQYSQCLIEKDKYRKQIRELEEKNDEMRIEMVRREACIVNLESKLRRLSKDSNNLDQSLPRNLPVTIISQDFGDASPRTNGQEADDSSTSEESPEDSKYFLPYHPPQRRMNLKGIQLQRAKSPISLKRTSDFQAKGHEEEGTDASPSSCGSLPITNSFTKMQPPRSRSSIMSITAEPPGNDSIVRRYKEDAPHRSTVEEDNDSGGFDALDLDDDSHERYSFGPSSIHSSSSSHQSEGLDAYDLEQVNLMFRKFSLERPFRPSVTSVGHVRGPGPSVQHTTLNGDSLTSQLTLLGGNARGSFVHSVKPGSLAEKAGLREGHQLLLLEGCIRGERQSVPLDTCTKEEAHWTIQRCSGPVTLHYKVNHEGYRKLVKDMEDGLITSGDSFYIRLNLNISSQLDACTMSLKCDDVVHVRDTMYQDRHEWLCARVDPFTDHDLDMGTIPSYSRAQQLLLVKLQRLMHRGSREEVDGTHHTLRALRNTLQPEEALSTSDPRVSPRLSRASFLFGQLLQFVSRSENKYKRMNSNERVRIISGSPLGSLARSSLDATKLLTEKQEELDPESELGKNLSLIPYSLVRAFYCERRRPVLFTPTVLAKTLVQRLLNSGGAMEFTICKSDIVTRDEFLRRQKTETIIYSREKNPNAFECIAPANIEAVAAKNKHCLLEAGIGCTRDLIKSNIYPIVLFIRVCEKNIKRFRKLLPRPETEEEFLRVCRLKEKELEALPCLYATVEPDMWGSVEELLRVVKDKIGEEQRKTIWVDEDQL
UniProt Q96KR1: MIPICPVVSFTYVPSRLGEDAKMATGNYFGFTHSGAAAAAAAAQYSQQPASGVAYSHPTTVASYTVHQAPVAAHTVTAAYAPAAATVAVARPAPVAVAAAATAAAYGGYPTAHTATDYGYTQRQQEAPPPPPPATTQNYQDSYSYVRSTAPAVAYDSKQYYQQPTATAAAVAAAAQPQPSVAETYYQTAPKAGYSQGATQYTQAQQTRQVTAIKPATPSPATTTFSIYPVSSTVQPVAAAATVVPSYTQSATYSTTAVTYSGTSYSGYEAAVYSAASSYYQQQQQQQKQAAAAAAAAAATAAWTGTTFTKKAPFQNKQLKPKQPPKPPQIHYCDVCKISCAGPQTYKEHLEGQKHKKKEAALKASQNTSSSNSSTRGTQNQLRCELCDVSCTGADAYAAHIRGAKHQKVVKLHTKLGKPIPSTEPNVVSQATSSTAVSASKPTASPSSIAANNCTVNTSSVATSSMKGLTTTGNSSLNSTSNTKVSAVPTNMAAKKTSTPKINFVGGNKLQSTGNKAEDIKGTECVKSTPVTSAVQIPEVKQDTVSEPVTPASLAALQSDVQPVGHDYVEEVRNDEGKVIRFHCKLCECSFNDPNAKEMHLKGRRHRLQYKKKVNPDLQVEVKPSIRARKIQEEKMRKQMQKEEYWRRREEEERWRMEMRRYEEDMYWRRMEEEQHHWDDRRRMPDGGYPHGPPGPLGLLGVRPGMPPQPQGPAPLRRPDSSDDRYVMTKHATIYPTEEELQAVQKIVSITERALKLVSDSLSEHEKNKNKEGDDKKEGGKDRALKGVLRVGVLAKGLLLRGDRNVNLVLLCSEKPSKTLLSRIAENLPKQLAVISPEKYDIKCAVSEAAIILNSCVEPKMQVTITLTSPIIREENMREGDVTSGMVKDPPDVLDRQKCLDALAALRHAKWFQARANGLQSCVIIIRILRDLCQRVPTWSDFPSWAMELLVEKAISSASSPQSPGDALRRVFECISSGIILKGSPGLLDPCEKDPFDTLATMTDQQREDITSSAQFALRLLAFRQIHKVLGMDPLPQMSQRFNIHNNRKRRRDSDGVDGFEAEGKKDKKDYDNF
UniProt Q96PY6: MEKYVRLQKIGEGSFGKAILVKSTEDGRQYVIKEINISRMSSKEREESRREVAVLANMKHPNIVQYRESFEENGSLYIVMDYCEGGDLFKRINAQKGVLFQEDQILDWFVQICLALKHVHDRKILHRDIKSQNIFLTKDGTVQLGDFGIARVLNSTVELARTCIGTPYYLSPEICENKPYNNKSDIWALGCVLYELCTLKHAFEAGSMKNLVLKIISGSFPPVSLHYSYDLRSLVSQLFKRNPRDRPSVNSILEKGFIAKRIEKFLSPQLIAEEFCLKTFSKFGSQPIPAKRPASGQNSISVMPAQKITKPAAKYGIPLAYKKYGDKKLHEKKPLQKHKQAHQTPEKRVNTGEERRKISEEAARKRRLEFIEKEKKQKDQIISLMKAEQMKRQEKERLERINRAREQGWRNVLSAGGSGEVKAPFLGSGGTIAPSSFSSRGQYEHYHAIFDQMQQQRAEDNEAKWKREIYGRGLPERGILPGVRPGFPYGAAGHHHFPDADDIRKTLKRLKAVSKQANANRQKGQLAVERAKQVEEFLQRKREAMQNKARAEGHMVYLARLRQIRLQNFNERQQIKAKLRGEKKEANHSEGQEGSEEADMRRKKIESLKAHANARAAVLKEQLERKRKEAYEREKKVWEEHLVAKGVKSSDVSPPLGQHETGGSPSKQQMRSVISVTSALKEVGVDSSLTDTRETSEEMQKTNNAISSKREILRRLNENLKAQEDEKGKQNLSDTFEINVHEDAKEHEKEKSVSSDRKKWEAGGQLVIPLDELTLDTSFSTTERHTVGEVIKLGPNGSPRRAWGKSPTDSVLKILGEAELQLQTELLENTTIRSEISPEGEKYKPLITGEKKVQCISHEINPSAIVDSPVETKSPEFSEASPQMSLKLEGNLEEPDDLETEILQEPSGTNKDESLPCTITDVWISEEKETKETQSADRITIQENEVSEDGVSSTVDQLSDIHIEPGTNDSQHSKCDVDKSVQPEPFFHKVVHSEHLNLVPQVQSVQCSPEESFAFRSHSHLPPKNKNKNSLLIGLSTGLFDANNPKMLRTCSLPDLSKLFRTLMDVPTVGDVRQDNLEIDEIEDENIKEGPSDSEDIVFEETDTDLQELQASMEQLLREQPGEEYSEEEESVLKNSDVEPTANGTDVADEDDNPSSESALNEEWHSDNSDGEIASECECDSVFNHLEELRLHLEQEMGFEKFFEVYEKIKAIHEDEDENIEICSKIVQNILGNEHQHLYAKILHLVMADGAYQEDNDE
UniProt Q9BUE0: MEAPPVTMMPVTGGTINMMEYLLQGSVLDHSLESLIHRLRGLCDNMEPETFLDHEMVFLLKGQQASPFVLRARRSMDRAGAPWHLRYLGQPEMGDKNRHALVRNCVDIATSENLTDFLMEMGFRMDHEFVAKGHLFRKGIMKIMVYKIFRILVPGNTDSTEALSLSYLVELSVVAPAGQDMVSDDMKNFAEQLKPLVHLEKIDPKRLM
UniProt Q9BRU9: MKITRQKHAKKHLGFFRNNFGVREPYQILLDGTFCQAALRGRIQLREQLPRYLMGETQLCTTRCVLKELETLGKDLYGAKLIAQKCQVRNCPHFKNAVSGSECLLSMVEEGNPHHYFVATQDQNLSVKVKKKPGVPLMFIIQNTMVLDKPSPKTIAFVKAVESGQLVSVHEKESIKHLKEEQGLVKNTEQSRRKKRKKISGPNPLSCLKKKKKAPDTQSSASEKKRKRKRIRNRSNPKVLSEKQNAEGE
UniProt Q99728: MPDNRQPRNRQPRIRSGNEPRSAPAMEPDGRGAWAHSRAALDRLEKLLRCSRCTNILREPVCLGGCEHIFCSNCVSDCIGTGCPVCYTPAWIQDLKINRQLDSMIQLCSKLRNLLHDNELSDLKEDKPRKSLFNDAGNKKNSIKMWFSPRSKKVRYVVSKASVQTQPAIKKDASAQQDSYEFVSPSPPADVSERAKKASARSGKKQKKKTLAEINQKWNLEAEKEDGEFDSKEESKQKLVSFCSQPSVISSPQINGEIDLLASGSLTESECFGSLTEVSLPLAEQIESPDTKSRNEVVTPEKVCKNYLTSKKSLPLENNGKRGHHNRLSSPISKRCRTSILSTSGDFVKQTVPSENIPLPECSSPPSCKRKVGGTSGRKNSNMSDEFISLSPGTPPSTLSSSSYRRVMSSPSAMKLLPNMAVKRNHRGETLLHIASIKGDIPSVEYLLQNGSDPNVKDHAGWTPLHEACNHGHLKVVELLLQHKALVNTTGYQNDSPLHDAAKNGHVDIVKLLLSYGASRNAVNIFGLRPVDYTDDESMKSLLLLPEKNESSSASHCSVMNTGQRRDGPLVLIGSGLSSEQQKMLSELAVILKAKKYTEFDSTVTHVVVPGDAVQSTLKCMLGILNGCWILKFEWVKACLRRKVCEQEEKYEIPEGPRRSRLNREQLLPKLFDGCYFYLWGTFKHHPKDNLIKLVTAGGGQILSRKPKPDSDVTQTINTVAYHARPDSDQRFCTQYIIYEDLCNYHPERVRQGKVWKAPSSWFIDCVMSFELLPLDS
UniProt Q96RS0: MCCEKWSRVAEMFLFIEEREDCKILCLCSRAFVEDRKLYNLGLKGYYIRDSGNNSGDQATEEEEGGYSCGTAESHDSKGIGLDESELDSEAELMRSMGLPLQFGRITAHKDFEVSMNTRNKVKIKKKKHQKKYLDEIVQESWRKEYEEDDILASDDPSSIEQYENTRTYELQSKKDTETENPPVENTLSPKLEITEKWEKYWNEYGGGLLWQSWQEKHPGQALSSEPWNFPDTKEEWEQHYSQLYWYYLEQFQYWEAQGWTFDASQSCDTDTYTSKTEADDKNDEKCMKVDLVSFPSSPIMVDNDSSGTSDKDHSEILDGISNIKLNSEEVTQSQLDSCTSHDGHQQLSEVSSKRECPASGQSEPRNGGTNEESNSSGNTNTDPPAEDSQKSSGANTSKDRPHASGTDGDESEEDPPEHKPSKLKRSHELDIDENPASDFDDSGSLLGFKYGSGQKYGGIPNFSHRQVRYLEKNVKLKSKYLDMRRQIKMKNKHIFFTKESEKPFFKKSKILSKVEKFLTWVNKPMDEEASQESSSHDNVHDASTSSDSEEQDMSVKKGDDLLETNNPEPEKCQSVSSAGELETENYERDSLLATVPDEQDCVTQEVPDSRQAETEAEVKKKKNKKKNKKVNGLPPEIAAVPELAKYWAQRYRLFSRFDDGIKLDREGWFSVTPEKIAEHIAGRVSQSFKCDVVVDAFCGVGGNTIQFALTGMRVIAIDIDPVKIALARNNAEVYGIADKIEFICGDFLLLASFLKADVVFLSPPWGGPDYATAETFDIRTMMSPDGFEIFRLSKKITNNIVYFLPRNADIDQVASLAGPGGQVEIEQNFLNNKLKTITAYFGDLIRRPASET

Compound: Nc1nc2c(ncn2[C@@H]2O[C@H](COP(=O)(O)OP(=O)(O)OP(=O)(O)O)[C@@H](O)[C@H]2O)c(=O)[nH]1 [guanosine triphosphate]
Assay: NP40-soluble protein abundance relative to vehicle (solubility fold change) (ratio); higher = more soluble protein in presence of GTP
Outline: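 Jurkat crude lysate (Dounce-homogenised) was treated with eight concentrations from 0.1 to 10 mM for 10 min at room temperature, then 3 min at 37 °C. It was solubilised with 0.8% NP40 and benzonase (60 min, 4 °C) and ultracentrifuged, and the supernatant was TMT-labelled for LC-MS/MS. Intensities were vsn-normalised, and the value is the fold change against the NP40-processed vehicle per replicate, from three independent experiments.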

Target	NP40-soluble protein abundance (concentration: 0.1mM)	NP40-soluble protein abundance (concentration: 0.5mM)	NP40-soluble protein abundance (concentration: 1mM)	NP40-soluble protein abundance (concentration: 2mM)	NP40-soluble protein abundance (concentration: 4mM)	NP40-soluble protein abundance (concentration: 6mM)	NP40-soluble protein abundance (concentration: 8mM)	NP40-soluble protein abundance (concentration: 10mM)
UniProt Q96N46 and related entries	1.092 ± 0.0039	0.984 ± 0.027	0.998 ± 0.028	1.07 ± 0.027	1.16 ± 0.12	1 ± 0.042	1.06 ± 0.077	1.06 ± 0.077
UniProt Q96S94 and related entries	0.934 ± 0.019	0.99 ± 0.053	0.955 ± 0.037	0.989 ± 0.092	0.933 ± 0.043	0.9476 ± 0.0035	0.965 ± 0.026	1.03 ± 0.11
FSD1 (UniProt Q9BTV5)	1.02 ± 0.071	1.09 ± 0.086	1.02 ± 0.062	0.998 ± 0.12	1.02 ± 0.12	1.02 ± 0.13	0.949 ± 0.072	0.969 ± 0.11
UniProt Q9BZE1 and related entries	1.08 ± 0.17	1.27 ± 0.38	1.19 ± 0.33	1.47 ± 0.59	1.46 ± 0.52	1.41 ± 0.51	1.26 ± 0.4	1.24 ± 0.42
VPS25 (UniProt Q9BRG1)	0.994 ± 0.034	0.963 ± 0.036	0.96 ± 0.046	0.964 ± 0.057	0.957 ± 0.057	0.924 ± 0.03	0.859 ± 0.036	0.861 ± 0.061
KIFC1 (UniProt Q9BW19)	0.975 ± 0.051	1.01 ± 0.073	0.996 ± 0.058	0.996 ± 0.072	1.01 ± 0.091	1.05 ± 0.079	1.06 ± 0.048	1.08 ± 0.064
UniProt Q9BQ61 and related entries	1.03 ± 0.048	1.07 ± 0.1	1.022 ± 0.0085	0.993 ± 0.078	0.92 ± 0.11	1.02 ± 0.089	1.11 ± 0.069	1.1 ± 0.059
UniProt Q9BQC6	1.03 ± 0.13	1.14 ± 0.2	1.42 ± 0.42	1.6 ± 0.51	1.52 ± 0.6	1.58 ± 0.53	1.24 ± 0.38	1.49 ± 0.59
UniProt Q96RL7 and related entries	1 ± 0.12	1.06 ± 0.037	1.04 ± 0.075	1 ± 0.11	0.977 ± 0.14	1 ± 0.13	1 ± 0.094	0.949 ± 0.052
SH3GL2 (UniProt Q99962)	0.922 ± 0.014	0.876 ± 0.054	0.929 ± 0.065	1.05 ± 0.037	0.945 ± 0.1	0.887 ± 0.11	0.834 ± 0.065	0.927 ± 0.075
CARD11 (UniProt Q9BXL7)	0.892 ± 0.1	0.973 ± 0.097	0.912 ± 0.095	0.955 ± 0.089	0.878 ± 0.059	0.906 ± 0.055	0.849 ± 0.12	0.92 ± 0.035
UniProt Q9BQ52 and related entries	1.009 ± 0.0066	1.01 ± 0.031	0.949 ± 0.025	0.954 ± 0.018	0.9477 ± 0.0043	0.922 ± 0.016	0.92 ± 0.03	0.904 ± 0.02
KIF2C (UniProt Q99661)	0.995 ± 0.016	0.9951 ± 0.0088	0.958 ± 0.028	0.973 ± 0.029	0.976 ± 0.017	0.963 ± 0.013	0.985 ± 0.017	0.966 ± 0.042
SETD2 (UniProt Q9BYW2)	0.996 ± 0.025	0.994 ± 0.028	1.04 ± 0.013	1.01 ± 0.053	1.02 ± 0.026	1.04 ± 0.025	1.08 ± 0.041	1.06 ± 0.031
NUP88 (UniProt Q99567)	1.03 ± 0.072	1.05 ± 0.05	0.993 ± 0.082	1.04 ± 0.074	1.03 ± 0.073	1.08 ± 0.081	1.11 ± 0.099	1.13 ± 0.063
UniProt Q9BPZ7 and related entries	0.977 ± 0.011	1.07 ± 0.11	1.05 ± 0.075	1.07 ± 0.092	1.1 ± 0.059	1.117 ± 0.0017	1.03 ± 0.05	1.017 ± 0.0057
SIN3A (UniProt Q96ST3)	1.02 ± 0.036	1.06 ± 0.028	1.06 ± 0.04	1.09 ± 0.069	1.13 ± 0.093	1.13 ± 0.086	1.16 ± 0.13	1.15 ± 0.11
ZFR (UniProt Q96KR1)	1.09 ± 0.066	1.09 ± 0.044	1.18 ± 0.13	1.18 ± 0.11	1.22 ± 0.11	1.23 ± 0.14	1.27 ± 0.18	1.23 ± 0.15
UniProt Q96PY6 and related entries	1.03 ± 0.06	1.03 ± 0.096	1.09 ± 0.07	1.12 ± 0.015	1.11 ± 0.069	1.119 ± 0.0043	1.16 ± 0.078	1.07 ± 0.034
MED18 (UniProt Q9BUE0)	1.04 ± 0.047	1.02 ± 0.012	1.02 ± 0.026	1.045 ± 0.005	1.01 ± 0.021	1.04 ± 0.016	1.01 ± 0.025	0.979 ± 0.02
UTP23 (UniProt Q9BRU9)	1.04 ± 0.043	1.17 ± 0.1	1.06 ± 0.043	1.35 ± 0.029	1.472 ± 0.01	1.57 ± 0.16	1.44 ± 0.1	1.62 ± 0.035
UniProt Q99873-3|Q99873-4	1.05 ± 0.083	1.1 ± 0.16	0.953 ± 0.11	1 ± 0.18	0.976 ± 0.14	0.986 ± 0.15	0.927 ± 0.052	0.867 ± 0.093
MTMR9 (UniProt Q96QG7)	1.08 ± 0.074	1.01 ± 0.046	0.939 ± 0.055	0.976 ± 0.077	0.984 ± 0.039	0.935 ± 0.042	0.94 ± 0.012	0.9 ± 0.031
UniProt Q9BRP8-2|Q9BRP8	1.07 ± 0.15	1.05 ± 0.09	1.13 ± 0.12	1.11 ± 0.14	1.04 ± 0.11	1.14 ± 0.15	1.1 ± 0.16	1.13 ± 0.14
UniProt Q9BRJ6 and related entries	1.17 ± 0.32	1.17 ± 0.37	1.19 ± 0.25	1.28 ± 0.33	1.2 ± 0.44	1.3 ± 0.48	1.18 ± 0.36	1.38 ± 0.53
UniProt Q99728 and related entries	1.1 ± 0.29	0.982 ± 0.005	1.16 ± 0.23	1.05 ± 0.051	1.06 ± 0.038	1.05 ± 0.097	1.13 ± 0.27	1.12 ± 0.23
GTPBP4 (UniProt Q9BZE4)	1.08 ± 0.03	1.05 ± 0.048	1.06 ± 0.017	1.13 ± 0.033	1.17 ± 0.033	1.2 ± 0.043	1.15 ± 0.043	1.17 ± 0.055
IPO9 (UniProt Q96P70)	1.02 ± 0.02	0.984 ± 0.014	0.95 ± 0.022	0.9734 ± 0.006	0.9551 ± 0.0068	0.956 ± 0.022	0.951 ± 0.032	0.926 ± 0.028
TGS1 (UniProt Q96RS0)	1.03 ± 0.083	1.04 ± 0.027	0.992 ± 0.024	1.01 ± 0.027	0.999 ± 0.088	1.03 ± 0.058	1.04 ± 0.088	1.03 ± 0.027
PSMB7 (UniProt Q99436)	0.958 ± 0.064	1.08 ± 0.12	1 ± 0.12	1.06 ± 0.15	1.01 ± 0.14	1.11 ± 0.18	1.01 ± 0.16	1.05 ± 0.17

Only NP40-soluble protein abundance (concentration: 1mM) (2 entries from above):
Target,NP40-soluble protein abundance (concentration: 1mM)
UniProt Q9BQ52 and related entries,0.949 ± 0.025
KIF2C (UniProt Q99661),0.958 ± 0.028
